Test results: publication PMC13678254
For at least one entry, the source does not settle the construct or the ends of the probe. At least one verdict rests on a figure or table, not on a statement of the authors.

Chains of the proteins cited; added tags and fusions are not shown. Residues count along the entry.
UniProt Q9UBB5, 150-214 S189A: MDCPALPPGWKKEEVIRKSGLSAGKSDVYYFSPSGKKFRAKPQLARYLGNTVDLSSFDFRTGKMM
UniProt Q9UBB5, 150-214: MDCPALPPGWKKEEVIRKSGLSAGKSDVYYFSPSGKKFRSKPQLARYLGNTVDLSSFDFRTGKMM

Columns and labels:
[1] = molecular target: MBD2 MBD S189A (Homo sapiens) (UniProt Q9UBB5); assay: NMR (15N-HSQC); conditions: methylation-specific binding mode retained; 5-methylcytosine at position 9 of strand 1 and at position 8 of strand 2 (symmetric mCpG); recombinant protein; residues 150-214
[2] = molecular target: MBD2 MBD wild type (Homo sapiens) (UniProt Q9UBB5); assay: NMR (15N-HSQC); conditions: comparison spectrum for S189A; 5-methylcytosine at position 9 of strand 1 and at position 8 of strand 2 (symmetric mCpG); recombinant protein; residues 150-214

GAGGCGCTCGGCGGCAG (double strand) [17-bp symmetrically methylated mCpG DNA, unlabeled]
binding result [1]: binds | binding result [2]: binds
